Results published in patent US9493512B2 (NOVARTIS AG, priority 2012, dated 2016).

Assay: general procedure: solution-phase peptide synthesis; HATU/EDIPA; EDC.HCl/DMAP for esterification; HATU/DMAP for macrolactamization
Conditions: for final HPLC purity: HPLC area %

Substance | step yield (late stage modification step) [%] | step yield (coupling step) [%] | also measured
Isobutyryl-Gln(Trt)-Thr(Ile-Tyr(tBu)Me-Fmoc)-Leu-OBzl |  |  | step yield (coupling step, overall over 2 steps from compound 21): 85%
Isobutyryl-Gln(Trt)-Thr(Ile-Tyr(tBu)Me-H)-Leu-OBzl |  |  | final HPLC purity (late stage modification step): 96.8 a % HPLC purity
Isobutyryl-Gln(Trt)-Thr(Ile-Tyr(tBu)Me-Ile-H)-Leu-OBzl | 91.8 |  | 
benzyl N^2-(2-methylpropanoyl)-N^5-(triphenylmethyl)-L-glutaminyl-O—{N-[(2S)-2-(dibenzylamino)-4-(1,3-dioxolan-2-yl)butanoyl]-L-isoleucyl-O-(tert-butyl)-N-methyl-L-tyrosyl-L-isoleucyl}-L-threonyl-L-leucinate |  | 91.2 | 
Isobutyryl-Gln(Trt)-Thr(Ile-Tyr(tBu)Me-Ile-Synthon(TBDPS)-fmoc)-Leu-OBzl |  | 99 | 
benzyl N^2-(2-methylpropanoyl)-N^5-(triphenylmethyl)-L-glutaminyl-O—{N-[(2S)-2-amino-5-hydroxypentanoyl]-L-isoleucyl-O-(tert-butyl)-N-methyl-L-tyrosyl-L-isoleucyl}-L-threonyl-L-leucinate | 90 |  | 
Isobutyryl-Gln(Trt)-Thr(Ile-H)-Leu-OBzl | 93.4 |  | 
Isobutyryl-Gln(Trt)-Thr(Ile-Fmoc)-Leu-OBzl |  |  | final HPLC purity (coupling step): 89.3 area % HPLC-purity
N^2-(2-methylpropanoyl)-N^5-(triphenylmethyl)-L-glutaminyl-O—{N-[(2S)-2-amino-4-(1,3-dioxolan-2-yl)butanoyl]-L-isoleucyl-O-(tert-butyl)-N-methyl-L-tyrosinyl-L-isoleucyl}-L-threonyl-L-leucine | 93.8 |  | 
Isobutyryl-Gln(Trt)-Thr(Ile-alloc)-Leu-OBzl |  | 89.2 | difficulty met (coupling step): ca. 10% racemization on Alloc-Ile-OH during esterification
N^2-(2-methylpropanoyl)-N^5-(triphenylmethyl)-L-glutaminyl-O—{N-[(2S)-2-amino-5-hydroxypentanoyl]-L-isoleucyl-O-(tert-butyl)-N-methyl-L-tyrosyl-L-isoleucyl}-L-threonyl-L-leucine | 97.7 |  | 
Isobutyryl-Gln(Trt)-Thr(Ile-Tyr(tBu)Me-Ile-Fmoc)-Leu-Obzl |  | 89.6 | 
